Data set [1] concerns the target XRCC5 (X-ray repair cross-complementing protein 5) (UniProt P13010). Put plainly: DNA pull-down, MS and Western blot. The following applies: SH-SY5Y nuclear extract, poly(dI-dC), 4 C overnight, pull-down: 60 mM KCl, 12 mM HEPES pH 7.9, 25 mM Tris-HCl pH 7.5, 1 mM EDTA, 5% glycerol, 100 mM NaCl, 1 mM DTT, 10 ng/ul poly(dI-dC), protein in an extract. (In general: A western blot detects proteins with antibodies after separation by electrophoresis.)

Chains of the proteins cited; added tags and fusions are not shown. Lines headed by an entry give the natural chain unless they say otherwise; changes in a name come on top.
UniProt P13010: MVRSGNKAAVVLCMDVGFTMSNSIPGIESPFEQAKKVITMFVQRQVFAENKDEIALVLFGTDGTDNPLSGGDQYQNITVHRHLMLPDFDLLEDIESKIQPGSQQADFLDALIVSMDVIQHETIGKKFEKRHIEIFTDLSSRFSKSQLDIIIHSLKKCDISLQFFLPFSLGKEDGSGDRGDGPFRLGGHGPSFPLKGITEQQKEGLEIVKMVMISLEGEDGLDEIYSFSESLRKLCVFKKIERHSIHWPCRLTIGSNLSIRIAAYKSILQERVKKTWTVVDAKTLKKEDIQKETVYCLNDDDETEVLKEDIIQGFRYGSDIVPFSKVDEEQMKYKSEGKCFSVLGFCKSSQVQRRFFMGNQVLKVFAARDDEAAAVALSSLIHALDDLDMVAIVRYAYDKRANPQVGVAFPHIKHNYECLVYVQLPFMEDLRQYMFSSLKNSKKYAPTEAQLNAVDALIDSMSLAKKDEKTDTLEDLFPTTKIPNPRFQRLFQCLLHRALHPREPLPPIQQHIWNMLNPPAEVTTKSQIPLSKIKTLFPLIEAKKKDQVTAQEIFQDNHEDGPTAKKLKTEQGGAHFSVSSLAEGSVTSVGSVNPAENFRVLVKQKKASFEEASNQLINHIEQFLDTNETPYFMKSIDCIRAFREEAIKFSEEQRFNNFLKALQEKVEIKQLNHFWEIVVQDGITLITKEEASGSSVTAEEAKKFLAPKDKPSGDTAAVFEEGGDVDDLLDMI

For data set [2] the target is unchanged. In words: EMSA supershift (anti-XRCC5). The following applies: SH-SY5Y nuclear extract, 5 mM MgCl2, poly(dI-dC); EMSA: 5 ug SH-SY5Y nuclear extract, 1x LightShift binding buffer, 2.5% glycerol, 5 mM MgCl2, 50 ng/ul poly(dI-dC), 0.05% NP-40, 20 fmol probe, RT 30 min; protein in an extract. (In EMSA bound probe runs differently from free probe, usually more slowly.)

For at least one entry, the source does not settle the construct or the ends of the probe. Results from cells or extracts need not show a direct contact. For some of these results: At least one verdict was read from the data and is not stated in words by the source.

On to “AGCCCCATGGGCTCTCCTCACCTGGCTGGGGCATGTGGGG (double strand) [rs148582811-C probe]”, for which the binding result in data set [1] and in data set [2] was “binds” throughout.

Take “AGCCCCATGGGCTCTCCTCATCTGGCTGGGGCATGTGGGG (double strand) [rs148582811-T probe]”: the binding result in data set [1] and in data set [2] was “binds” each time.

For the origin of these results see publication PMC10679859.
